Test results: the supplement of paper PMC7661543
The effect of the compound repeats well; differences between the knockouts mostly do not.

Tested on: SKBR3
Experiment: relative cell number vs DMSO control (72 h) (% of DMSO); higher = less growth inhibition (more cells)
Protocol: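 QMAP-Seq: a pool of 5 breast cancer cell lines (ZR-75-1, SKBR3, HCC-38, MDA-MB-231, BT-20), each carrying 12 doxycycline-inducible Cas9 sgRNA perturbations (11 knockouts plus non-targeting sgNT), was treated with compounds for 72 h at four 10-fold doses (10 nM-10 uM or 1 nM-1 uM range). Barcodes were amplified and sequenced, and cell number was interpolated from 293T spike-in standard curves. The result is expressed as % of the median of DMSO wells. Two biological replicates.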

CC(=O)O[C@H]1C(=O)[C@@]2(C)[C@H]([C@H](OC(=O)c3ccccc3)[C@]3(O)C[C@H](OC(=O)[C@H](O)[C@@H](NC(=O)c4ccccc4)c4ccccc4)C(C)=C1C3(C)C)[C@]1(OC(C)=O)CO[C@@H]1C[C@@H]2O [Paclitaxel]
Settings	relative cell number
sgRNA knockout: sgATF3, 10 nM	15.1
sgRNA knockout: sgATF3, 100 nM	11.8
sgRNA knockout: sgATF3, 1000 nM	17.6
sgRNA knockout: sgATF3, 10000 nM	24.6
sgRNA knockout: sgATF4, 10 nM	18.4
sgRNA knockout: sgATF4, 100 nM	7.67
sgRNA knockout: sgATF4, 1000 nM	10.2
sgRNA knockout: sgATF4, 10000 nM	15.7
sgRNA knockout: sgATF6, 10 nM	10.2
sgRNA knockout: sgATF6, 100 nM	9.13
sgRNA knockout: sgATF6, 1000 nM	11.9
sgRNA knockout: sgATF6, 10000 nM	18.8
sgRNA knockout: sgATG7, 10 nM	19
sgRNA knockout: sgATG7, 100 nM	7.32
sgRNA knockout: sgATG7, 1000 nM	13.7
sgRNA knockout: sgATG7, 10000 nM	16.3
sgRNA knockout: sgERN1, 10 nM	15.8
sgRNA knockout: sgERN1, 100 nM	14.2
sgRNA knockout: sgERN1, 1000 nM	11.65
sgRNA knockout: sgERN1, 10000 nM	13.1
sgRNA knockout: sgHSF1, 10 nM	15.6
sgRNA knockout: sgHSF1, 100 nM	6.4
sgRNA knockout: sgHSF1, 1000 nM	12
sgRNA knockout: sgHSF1, 10000 nM	18.3
sgRNA knockout: sgHSF2, 10 nM	22.9
sgRNA knockout: sgHSF2, 100 nM	7.229
sgRNA knockout: sgHSF2, 1000 nM	11.8
sgRNA knockout: sgHSF2, 10000 nM	22.5
sgRNA knockout: sgKEAP1, 10 nM	15
sgRNA knockout: sgKEAP1, 100 nM	8.79
sgRNA knockout: sgKEAP1, 1000 nM	9.15
sgRNA knockout: sgKEAP1, 10000 nM	16.9
sgRNA knockout: sgNFE2L2, 10 nM	15
sgRNA knockout: sgNFE2L2, 100 nM	10.2
sgRNA knockout: sgNFE2L2, 1000 nM	12.3
sgRNA knockout: sgNFE2L2, 10000 nM	17.3
sgRNA knockout: sgSLC35F2, 10 nM	15.6
sgRNA knockout: sgSLC35F2, 100 nM	11.2
sgRNA knockout: sgSLC35F2, 1000 nM	10.2
sgRNA knockout: sgSLC35F2, 10000 nM	21.2
sgRNA knockout: sgXBP1, 10 nM	15.3
sgRNA knockout: sgXBP1, 100 nM	6.56
sgRNA knockout: sgXBP1, 1000 nM	12.3
sgRNA knockout: sgXBP1, 10000 nM	18.5

C=C1C(=O)O[C@H]2[C@H]1CC/C(C)=C/CC[C@@]1(C)O[C@@H]21 [Parthenolide]
Settings	relative cell number
sgRNA knockout: sgATF3, 10 nM	103
sgRNA knockout: sgATF3, 100 nM	121
sgRNA knockout: sgATF3, 1000 nM	121
sgRNA knockout: sgATF3, 10000 nM	112.8
sgRNA knockout: sgATF4, 10 nM	123
sgRNA knockout: sgATF4, 100 nM	114
sgRNA knockout: sgATF4, 1000 nM	93.8
sgRNA knockout: sgATF4, 10000 nM	93.4
sgRNA knockout: sgATF6, 10 nM	109
sgRNA knockout: sgATF6, 100 nM	95.5
sgRNA knockout: sgATF6, 1000 nM	114
sgRNA knockout: sgATF6, 10000 nM	91.74
sgRNA knockout: sgATG7, 10 nM	111
sgRNA knockout: sgATG7, 100 nM	109
sgRNA knockout: sgATG7, 1000 nM	75
sgRNA knockout: sgATG7, 10000 nM	96.4
sgRNA knockout: sgERN1, 10 nM	111
sgRNA knockout: sgERN1, 100 nM	108
sgRNA knockout: sgERN1, 1000 nM	118
sgRNA knockout: sgERN1, 10000 nM	113
sgRNA knockout: sgHSF1, 10 nM	93.9
sgRNA knockout: sgHSF1, 100 nM	111
sgRNA knockout: sgHSF1, 1000 nM	84.648
sgRNA knockout: sgHSF1, 10000 nM	111.99
sgRNA knockout: sgHSF2, 10 nM	108
sgRNA knockout: sgHSF2, 100 nM	99.3
sgRNA knockout: sgHSF2, 1000 nM	99.5
sgRNA knockout: sgHSF2, 10000 nM	103
sgRNA knockout: sgKEAP1, 10 nM	87.8
sgRNA knockout: sgKEAP1, 100 nM	101
sgRNA knockout: sgKEAP1, 1000 nM	88.6
sgRNA knockout: sgKEAP1, 10000 nM	99.3
sgRNA knockout: sgNFE2L2, 10 nM	105.5
sgRNA knockout: sgNFE2L2, 100 nM	105
sgRNA knockout: sgNFE2L2, 1000 nM	107
sgRNA knockout: sgNFE2L2, 10000 nM	131
sgRNA knockout: sgSLC35F2, 10 nM	111
sgRNA knockout: sgSLC35F2, 100 nM	105
sgRNA knockout: sgSLC35F2, 1000 nM	89.5
sgRNA knockout: sgSLC35F2, 10000 nM	91.9
sgRNA knockout: sgXBP1, 10 nM	112
sgRNA knockout: sgXBP1, 100 nM	112
sgRNA knockout: sgXBP1, 1000 nM	92.8
sgRNA knockout: sgXBP1, 10000 nM	98

CNC(=O)c1cc(Oc2ccc(NC(=O)Nc3ccc(Cl)c(C(F)(F)F)c3)c(F)c2)ccn1 [Regorafenib]
Settings	relative cell number
sgRNA knockout: sgATF3, 10 nM	102
sgRNA knockout: sgATF3, 100 nM	108
sgRNA knockout: sgATF3, 1000 nM	122
sgRNA knockout: sgATF3, 10000 nM	40.5
sgRNA knockout: sgATF4, 10 nM	98.7
sgRNA knockout: sgATF4, 100 nM	99.3
sgRNA knockout: sgATF4, 1000 nM	96.9
sgRNA knockout: sgATF4, 10000 nM	35.8
sgRNA knockout: sgATF6, 10 nM	97.1
sgRNA knockout: sgATF6, 100 nM	129
sgRNA knockout: sgATF6, 1000 nM	107
sgRNA knockout: sgATF6, 10000 nM	32.3
sgRNA knockout: sgATG7, 10 nM	95.2
sgRNA knockout: sgATG7, 100 nM	109
sgRNA knockout: sgATG7, 1000 nM	128
sgRNA knockout: sgATG7, 10000 nM	40.4
sgRNA knockout: sgERN1, 10 nM	96.9
sgRNA knockout: sgERN1, 100 nM	93
sgRNA knockout: sgERN1, 1000 nM	116
sgRNA knockout: sgERN1, 10000 nM	54.5
sgRNA knockout: sgHSF1, 10 nM	97.6
sgRNA knockout: sgHSF1, 100 nM	113
sgRNA knockout: sgHSF1, 1000 nM	111
sgRNA knockout: sgHSF1, 10000 nM	38.9
sgRNA knockout: sgHSF2, 10 nM	88.1
sgRNA knockout: sgHSF2, 100 nM	97.9
sgRNA knockout: sgHSF2, 1000 nM	118
sgRNA knockout: sgHSF2, 10000 nM	36.8
sgRNA knockout: sgKEAP1, 10 nM	81.1
sgRNA knockout: sgKEAP1, 100 nM	107
sgRNA knockout: sgKEAP1, 1000 nM	113
sgRNA knockout: sgKEAP1, 10000 nM	34.7
sgRNA knockout: sgNFE2L2, 10 nM	110
sgRNA knockout: sgNFE2L2, 100 nM	110
sgRNA knockout: sgNFE2L2, 1000 nM	102
sgRNA knockout: sgNFE2L2, 10000 nM	37.5
sgRNA knockout: sgSLC35F2, 10 nM	92.2
sgRNA knockout: sgSLC35F2, 100 nM	99.9
sgRNA knockout: sgSLC35F2, 1000 nM	99.3
sgRNA knockout: sgSLC35F2, 10000 nM	36.7
sgRNA knockout: sgXBP1, 10 nM	128
sgRNA knockout: sgXBP1, 100 nM	107
sgRNA knockout: sgXBP1, 1000 nM	122
sgRNA knockout: sgXBP1, 10000 nM	49.5
